From article PMC11413784 come the findings set out here.

Chains of the proteins cited; added tags and fusions are not shown.
UniProt O60674: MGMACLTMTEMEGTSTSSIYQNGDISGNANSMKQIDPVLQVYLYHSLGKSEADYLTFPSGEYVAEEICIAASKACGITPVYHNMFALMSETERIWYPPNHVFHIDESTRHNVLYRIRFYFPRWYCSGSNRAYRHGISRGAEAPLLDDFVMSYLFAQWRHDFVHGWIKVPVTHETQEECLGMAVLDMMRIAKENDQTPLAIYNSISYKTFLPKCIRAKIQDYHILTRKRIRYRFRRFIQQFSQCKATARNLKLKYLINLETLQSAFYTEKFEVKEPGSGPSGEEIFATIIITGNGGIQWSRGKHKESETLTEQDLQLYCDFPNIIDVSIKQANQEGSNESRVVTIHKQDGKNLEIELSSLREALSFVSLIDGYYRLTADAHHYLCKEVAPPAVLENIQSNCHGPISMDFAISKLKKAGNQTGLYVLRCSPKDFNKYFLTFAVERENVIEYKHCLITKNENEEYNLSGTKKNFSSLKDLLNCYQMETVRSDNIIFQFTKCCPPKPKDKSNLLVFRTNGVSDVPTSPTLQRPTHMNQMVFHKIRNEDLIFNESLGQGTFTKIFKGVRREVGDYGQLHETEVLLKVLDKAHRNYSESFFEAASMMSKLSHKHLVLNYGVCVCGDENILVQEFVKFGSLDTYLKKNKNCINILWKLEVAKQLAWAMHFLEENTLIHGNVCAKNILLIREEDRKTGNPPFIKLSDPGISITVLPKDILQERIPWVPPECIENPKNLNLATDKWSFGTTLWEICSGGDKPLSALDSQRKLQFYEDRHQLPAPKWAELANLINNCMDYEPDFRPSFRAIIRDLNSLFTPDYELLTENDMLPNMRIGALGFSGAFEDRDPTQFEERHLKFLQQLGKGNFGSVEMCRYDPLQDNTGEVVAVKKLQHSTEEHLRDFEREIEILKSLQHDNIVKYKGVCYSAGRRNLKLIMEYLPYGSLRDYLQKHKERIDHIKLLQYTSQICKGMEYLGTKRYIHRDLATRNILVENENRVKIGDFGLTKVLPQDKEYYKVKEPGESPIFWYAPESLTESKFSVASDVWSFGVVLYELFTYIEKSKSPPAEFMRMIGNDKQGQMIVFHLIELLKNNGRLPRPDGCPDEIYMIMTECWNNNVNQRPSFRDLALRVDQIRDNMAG
UniProt P51692: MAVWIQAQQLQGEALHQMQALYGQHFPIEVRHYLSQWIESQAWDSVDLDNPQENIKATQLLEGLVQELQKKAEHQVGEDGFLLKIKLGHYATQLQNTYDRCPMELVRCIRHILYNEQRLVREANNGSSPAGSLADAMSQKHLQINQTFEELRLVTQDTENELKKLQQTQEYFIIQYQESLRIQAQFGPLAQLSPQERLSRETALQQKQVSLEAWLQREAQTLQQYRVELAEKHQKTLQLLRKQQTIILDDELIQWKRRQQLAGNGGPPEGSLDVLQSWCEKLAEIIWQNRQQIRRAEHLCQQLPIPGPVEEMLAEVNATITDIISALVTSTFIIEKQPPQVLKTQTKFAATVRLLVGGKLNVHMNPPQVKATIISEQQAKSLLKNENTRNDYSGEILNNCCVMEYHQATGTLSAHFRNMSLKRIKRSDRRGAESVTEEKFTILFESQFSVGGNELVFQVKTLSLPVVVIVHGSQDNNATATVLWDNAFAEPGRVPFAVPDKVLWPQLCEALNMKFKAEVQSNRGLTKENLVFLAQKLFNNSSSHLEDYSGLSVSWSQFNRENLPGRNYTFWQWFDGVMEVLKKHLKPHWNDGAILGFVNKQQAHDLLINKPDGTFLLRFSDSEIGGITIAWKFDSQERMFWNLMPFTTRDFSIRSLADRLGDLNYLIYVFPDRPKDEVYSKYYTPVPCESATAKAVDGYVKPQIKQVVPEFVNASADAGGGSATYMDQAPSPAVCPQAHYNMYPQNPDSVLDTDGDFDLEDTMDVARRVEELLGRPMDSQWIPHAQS
UniProt P42229: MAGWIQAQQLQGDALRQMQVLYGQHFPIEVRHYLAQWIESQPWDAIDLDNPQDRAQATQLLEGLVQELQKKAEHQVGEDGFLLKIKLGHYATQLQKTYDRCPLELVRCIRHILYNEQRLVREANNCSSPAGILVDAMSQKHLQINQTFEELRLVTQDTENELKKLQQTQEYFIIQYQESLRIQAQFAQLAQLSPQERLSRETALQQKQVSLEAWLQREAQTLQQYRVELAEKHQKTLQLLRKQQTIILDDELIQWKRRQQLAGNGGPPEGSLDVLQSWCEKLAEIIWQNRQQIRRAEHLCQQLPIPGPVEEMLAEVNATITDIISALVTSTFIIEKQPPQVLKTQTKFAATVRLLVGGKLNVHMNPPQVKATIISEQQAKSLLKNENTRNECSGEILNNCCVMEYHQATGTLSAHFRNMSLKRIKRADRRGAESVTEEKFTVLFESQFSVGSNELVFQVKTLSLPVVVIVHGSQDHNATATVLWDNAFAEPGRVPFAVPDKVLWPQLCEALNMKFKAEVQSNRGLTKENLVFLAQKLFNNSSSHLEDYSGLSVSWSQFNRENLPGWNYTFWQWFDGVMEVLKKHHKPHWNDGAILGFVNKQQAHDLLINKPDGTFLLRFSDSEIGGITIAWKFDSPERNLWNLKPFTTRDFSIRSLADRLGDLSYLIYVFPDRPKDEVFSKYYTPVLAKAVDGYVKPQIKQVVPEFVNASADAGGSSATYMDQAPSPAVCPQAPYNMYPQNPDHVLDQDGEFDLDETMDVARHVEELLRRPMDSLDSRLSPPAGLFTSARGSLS

Assay [1] addresses T1, CNOT4 (human (endogenous in patient-derived DGCs)) (UniProt O95628).
T1 sequence: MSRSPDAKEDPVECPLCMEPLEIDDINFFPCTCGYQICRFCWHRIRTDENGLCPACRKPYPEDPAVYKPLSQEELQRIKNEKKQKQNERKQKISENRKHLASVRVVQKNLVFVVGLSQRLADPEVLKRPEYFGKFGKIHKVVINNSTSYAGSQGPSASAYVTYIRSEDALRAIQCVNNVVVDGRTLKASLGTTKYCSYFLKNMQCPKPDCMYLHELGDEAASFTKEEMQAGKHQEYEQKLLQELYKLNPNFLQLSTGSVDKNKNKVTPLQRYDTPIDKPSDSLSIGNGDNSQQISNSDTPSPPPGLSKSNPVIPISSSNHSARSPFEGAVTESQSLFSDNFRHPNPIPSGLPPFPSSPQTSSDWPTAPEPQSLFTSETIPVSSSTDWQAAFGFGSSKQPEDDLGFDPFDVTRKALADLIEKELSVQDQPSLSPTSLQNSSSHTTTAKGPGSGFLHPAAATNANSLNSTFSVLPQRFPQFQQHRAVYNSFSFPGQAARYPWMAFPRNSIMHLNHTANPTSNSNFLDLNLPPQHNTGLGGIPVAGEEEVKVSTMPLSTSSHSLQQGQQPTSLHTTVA
The assay can be described thus: co-IP; lysates of DGCs in IP lysis buffer with protease and phosphatase inhibitors, antibodies conjugated to magnetic beads (Pierce Classic Magnetic IP/Co-IP Kit), 4 °C overnight, western blot; also in DGCs incubated with GDEs with circCMTM3 overexpression or knockdown.

The target in assay [2] is JAK2 (human (endogenous in patient-derived DGCs)) (UniProt O60674). The description is as above.

No constants are given. Whether binding was seen depends on the method and setting. Binding seen in cells or lysates may run through a third protein. Some binding calls cover weakened binding; strength is not graded here.

Consider STAT5B (from UniProt P51692 1-787), for which the binding result in assay [1] and in assay [2] was “binds” each time.

STAT5A (from UniProt P42229 1-794): the binding entry in assay [1] and in assay [2] was “binds” throughout.
